The supplement of paper PMC12067093, “Discovery and optimisation of a covalent ligand for TRIM25 and its application to targeted protein ubiquitination” (Chemical Science, 2025)
Some of the results follow.

Chains of the proteins cited; added tags and fusions are not shown. Lines headed by an entry give the natural chain unless they say otherwise; changes in a name come on top.
UniProt Q7LBC6: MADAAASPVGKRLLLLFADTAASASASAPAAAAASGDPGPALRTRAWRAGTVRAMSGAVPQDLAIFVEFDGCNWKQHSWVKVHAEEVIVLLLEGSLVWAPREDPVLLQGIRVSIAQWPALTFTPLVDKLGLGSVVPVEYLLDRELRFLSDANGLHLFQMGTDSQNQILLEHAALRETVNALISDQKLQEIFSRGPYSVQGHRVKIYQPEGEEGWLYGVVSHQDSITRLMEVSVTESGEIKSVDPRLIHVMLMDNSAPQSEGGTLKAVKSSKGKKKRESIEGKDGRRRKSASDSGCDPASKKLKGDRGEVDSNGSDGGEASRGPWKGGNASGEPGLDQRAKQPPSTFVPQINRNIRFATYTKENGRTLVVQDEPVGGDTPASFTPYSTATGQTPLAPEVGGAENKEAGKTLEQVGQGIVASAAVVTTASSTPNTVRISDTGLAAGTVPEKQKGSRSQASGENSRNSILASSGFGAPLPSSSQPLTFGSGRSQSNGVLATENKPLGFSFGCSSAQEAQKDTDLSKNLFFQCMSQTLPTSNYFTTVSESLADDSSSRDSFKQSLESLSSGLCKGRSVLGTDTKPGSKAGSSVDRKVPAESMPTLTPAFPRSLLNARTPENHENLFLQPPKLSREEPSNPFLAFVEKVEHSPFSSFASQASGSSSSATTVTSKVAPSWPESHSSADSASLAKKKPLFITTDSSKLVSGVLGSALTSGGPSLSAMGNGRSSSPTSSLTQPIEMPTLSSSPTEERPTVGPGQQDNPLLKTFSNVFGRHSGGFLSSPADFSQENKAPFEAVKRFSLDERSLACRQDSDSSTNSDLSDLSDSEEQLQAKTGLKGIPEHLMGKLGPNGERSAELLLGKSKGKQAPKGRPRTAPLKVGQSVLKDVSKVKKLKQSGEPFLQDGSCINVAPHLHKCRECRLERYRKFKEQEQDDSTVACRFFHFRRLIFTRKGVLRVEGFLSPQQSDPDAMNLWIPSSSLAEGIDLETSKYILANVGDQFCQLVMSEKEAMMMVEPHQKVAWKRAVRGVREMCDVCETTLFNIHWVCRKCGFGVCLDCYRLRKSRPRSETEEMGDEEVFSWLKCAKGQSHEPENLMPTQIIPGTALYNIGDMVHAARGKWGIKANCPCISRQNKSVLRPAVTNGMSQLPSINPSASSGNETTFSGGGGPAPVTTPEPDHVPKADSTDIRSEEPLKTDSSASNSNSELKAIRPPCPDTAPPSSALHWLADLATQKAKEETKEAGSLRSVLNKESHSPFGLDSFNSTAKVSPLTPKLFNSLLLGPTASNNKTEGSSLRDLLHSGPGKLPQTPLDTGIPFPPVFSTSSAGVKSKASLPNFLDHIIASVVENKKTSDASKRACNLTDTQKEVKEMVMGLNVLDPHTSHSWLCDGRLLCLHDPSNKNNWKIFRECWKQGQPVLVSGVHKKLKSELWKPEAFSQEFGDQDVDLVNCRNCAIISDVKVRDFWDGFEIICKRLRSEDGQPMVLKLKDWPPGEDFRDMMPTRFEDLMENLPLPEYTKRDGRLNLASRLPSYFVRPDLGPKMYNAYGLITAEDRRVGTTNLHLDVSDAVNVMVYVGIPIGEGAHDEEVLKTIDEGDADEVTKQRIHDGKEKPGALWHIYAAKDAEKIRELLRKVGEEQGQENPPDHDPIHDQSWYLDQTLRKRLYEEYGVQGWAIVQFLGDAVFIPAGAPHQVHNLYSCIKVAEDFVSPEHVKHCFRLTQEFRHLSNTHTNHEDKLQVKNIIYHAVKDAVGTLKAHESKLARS
UniProt Q15652: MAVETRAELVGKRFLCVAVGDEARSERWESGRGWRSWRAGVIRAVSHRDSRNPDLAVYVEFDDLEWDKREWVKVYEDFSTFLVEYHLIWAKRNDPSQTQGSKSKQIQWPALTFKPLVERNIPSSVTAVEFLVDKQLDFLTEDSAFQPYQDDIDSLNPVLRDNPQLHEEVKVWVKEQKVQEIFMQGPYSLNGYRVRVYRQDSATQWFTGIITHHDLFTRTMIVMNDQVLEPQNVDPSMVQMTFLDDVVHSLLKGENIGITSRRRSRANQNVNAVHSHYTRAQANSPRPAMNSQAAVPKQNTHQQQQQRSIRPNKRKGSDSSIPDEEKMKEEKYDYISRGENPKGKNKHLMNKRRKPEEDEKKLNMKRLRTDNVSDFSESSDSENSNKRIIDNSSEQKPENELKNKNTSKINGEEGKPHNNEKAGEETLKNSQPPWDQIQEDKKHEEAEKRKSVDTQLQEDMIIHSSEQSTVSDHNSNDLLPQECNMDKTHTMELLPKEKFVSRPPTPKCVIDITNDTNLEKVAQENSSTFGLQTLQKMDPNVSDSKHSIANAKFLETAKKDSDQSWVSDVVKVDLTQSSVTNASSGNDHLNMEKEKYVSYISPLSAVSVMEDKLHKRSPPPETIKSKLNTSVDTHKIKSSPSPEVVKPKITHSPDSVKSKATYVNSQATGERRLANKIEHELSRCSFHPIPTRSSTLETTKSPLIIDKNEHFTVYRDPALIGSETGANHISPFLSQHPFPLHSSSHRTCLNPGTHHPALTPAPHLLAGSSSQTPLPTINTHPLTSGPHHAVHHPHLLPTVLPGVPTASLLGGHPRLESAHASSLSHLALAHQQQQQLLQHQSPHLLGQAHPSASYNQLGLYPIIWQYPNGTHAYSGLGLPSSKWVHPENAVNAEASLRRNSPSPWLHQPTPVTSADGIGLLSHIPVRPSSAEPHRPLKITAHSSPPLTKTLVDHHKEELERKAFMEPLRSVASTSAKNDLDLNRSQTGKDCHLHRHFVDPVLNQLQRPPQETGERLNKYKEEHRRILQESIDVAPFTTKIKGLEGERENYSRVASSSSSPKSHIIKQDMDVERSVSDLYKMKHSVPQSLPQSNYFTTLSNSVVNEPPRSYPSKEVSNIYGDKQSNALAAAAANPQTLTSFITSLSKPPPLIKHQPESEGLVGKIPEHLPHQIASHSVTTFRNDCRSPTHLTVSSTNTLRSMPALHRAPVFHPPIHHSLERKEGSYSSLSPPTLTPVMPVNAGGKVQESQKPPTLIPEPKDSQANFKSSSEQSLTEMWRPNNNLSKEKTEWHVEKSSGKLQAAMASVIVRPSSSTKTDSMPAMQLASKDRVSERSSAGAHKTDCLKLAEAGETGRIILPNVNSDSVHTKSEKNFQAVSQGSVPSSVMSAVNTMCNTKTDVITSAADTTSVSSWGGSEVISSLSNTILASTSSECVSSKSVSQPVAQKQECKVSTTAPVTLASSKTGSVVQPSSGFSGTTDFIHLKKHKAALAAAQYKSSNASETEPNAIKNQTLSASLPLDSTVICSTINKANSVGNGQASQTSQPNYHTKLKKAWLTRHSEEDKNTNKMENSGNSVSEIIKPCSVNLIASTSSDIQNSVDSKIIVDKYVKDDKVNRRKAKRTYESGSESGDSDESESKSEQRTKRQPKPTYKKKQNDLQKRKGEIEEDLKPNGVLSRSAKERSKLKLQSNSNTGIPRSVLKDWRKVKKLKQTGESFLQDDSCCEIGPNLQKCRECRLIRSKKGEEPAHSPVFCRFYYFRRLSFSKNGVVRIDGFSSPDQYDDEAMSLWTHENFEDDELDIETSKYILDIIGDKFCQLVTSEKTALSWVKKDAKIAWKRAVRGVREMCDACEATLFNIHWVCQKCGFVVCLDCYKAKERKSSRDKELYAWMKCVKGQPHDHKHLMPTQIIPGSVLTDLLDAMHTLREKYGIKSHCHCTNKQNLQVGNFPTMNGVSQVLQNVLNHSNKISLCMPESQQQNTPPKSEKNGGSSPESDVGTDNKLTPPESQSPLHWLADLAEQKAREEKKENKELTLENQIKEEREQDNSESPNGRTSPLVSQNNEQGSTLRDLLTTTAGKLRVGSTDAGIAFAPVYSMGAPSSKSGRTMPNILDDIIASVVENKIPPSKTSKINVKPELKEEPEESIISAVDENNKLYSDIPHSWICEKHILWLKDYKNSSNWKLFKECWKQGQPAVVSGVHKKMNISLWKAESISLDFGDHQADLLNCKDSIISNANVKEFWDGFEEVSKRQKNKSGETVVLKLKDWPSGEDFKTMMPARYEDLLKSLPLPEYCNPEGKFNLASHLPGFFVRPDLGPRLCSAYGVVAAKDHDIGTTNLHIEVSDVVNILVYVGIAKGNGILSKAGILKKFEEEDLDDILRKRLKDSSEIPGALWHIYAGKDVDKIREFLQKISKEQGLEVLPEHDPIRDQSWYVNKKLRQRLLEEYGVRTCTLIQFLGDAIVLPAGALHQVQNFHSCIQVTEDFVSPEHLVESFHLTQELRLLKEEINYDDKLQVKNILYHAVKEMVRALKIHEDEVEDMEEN
UniProt Q96Q89: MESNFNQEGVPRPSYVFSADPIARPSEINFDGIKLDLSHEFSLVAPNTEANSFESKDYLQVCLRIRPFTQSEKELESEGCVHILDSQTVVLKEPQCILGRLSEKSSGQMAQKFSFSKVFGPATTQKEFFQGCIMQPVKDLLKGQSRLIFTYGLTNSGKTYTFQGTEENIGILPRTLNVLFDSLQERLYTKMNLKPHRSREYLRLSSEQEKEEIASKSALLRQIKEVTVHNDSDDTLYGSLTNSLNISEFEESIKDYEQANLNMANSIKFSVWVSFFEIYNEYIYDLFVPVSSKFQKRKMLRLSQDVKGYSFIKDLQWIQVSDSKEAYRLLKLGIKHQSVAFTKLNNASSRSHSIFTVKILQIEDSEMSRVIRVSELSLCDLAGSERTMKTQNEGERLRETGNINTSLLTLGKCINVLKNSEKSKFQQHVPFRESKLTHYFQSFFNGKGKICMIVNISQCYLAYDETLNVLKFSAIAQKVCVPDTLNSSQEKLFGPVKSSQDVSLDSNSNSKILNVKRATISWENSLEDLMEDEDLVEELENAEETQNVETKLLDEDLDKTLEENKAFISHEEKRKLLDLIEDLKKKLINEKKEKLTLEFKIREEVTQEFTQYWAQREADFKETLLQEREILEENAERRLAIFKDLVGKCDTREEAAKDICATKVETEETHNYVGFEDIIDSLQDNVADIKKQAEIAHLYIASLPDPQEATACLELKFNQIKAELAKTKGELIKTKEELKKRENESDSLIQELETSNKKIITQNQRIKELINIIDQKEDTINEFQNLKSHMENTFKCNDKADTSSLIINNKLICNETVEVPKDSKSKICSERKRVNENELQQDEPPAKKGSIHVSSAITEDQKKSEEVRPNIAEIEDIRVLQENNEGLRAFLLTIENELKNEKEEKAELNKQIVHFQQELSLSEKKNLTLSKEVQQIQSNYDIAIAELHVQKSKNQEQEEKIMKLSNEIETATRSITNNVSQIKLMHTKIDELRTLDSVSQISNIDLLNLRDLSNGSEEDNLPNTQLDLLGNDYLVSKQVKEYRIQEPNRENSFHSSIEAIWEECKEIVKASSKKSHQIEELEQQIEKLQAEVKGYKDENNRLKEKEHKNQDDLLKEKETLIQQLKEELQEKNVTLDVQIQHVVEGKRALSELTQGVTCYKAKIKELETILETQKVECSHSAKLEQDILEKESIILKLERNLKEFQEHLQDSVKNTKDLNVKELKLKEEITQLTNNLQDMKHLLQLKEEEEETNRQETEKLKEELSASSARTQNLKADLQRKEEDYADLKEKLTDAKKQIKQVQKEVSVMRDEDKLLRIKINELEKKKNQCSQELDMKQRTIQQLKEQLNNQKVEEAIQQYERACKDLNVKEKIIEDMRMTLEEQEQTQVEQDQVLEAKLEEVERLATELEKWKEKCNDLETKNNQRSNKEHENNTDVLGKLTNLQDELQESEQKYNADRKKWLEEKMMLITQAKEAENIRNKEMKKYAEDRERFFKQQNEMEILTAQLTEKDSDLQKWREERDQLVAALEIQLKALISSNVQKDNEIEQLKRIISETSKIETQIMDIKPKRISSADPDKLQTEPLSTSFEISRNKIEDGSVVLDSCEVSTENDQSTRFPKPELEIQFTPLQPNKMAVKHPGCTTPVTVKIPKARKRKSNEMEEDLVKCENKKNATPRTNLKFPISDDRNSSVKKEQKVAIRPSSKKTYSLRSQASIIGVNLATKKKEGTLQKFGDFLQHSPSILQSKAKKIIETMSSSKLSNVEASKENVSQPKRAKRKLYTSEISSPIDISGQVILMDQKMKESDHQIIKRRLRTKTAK
UniProt P26440: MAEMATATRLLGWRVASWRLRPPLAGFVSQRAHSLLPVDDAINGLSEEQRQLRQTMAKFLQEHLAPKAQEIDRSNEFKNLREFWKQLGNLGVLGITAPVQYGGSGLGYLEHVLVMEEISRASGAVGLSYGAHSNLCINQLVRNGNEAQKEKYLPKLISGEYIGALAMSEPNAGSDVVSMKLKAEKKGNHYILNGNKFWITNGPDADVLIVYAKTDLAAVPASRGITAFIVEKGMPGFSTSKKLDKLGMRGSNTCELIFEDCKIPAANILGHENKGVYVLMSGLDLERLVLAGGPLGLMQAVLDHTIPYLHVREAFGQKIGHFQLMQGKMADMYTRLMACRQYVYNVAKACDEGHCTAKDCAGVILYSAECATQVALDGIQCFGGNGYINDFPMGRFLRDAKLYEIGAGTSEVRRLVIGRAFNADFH

compound: Cc1cc(ccc1-c1ccccc1)C(=O)N1CCCN(CC1)C(=O)CCl [compound 10]; assay: probe-labelled cysteine peptide fold change vs DMSO (competition) (log2 fold change); higher = less target engagement (more negative = stronger competition); details: 10 µM; THP-1; incubation time: 4 h
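Further: competitive profiling in live THP-1 cells: cysteine peptides tagged with an iodoacetamide desthiobiotin (IA-DTB) probe, intensity after compound treatment relative to DMSO-treated cells.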

Target	probe-labelled cysteine peptide fold change
ITPR2_Q14571_1415_VVTHDDCIPEVK (UniProt Q14571)	-0.0184
KIF18B_Q86Y91_437_SGPPPEHLPSSPLPPHPPSQPCTPELPAGPR (UniProt Q86Y91)	-0.236
KDM3B_Q7LBC6_1470_VRDFWDGFEIICK (UniProt Q7LBC6)	0.00404
KDM3B_Q7LBC6_1212_AIRPPCPDTAPPSSALHWLADLATQK (UniProt Q7LBC6)	-0.176
JMJD1C_Q15652_1871_CGFVVCLDCYK (UniProt Q15652)	0.149
KIF20B_Q96Q89_80_ELESEGCVHILDSQTVVLK (UniProt Q96Q89)	-0.0444
KCTD18_Q6PI47_56_TDESGACVIDR (UniProt Q6PI47)	0.0105
ITPR1_Q14643_2536_EHTCETLLMCIVTVLSHGLR (UniProt Q14643)	0.0218
IVD_P26440_254+261_GSNTCELIFEDCK (UniProt P26440)	0.136
KBTBD2_Q8IY47_145_LLSFADLFSCEELK (UniProt Q8IY47)	-0.201
KDM5B_Q9UGL1_1072_ECAVNTFLTENSPYSLLEVLCPR (UniProt Q9UGL1)	0.544
JARID2_Q92833_206_TATNNASSSCQSTPR (UniProt Q92833)	-0.271
JMJD6_Q6NYC1_207_WCLFPTSTPR (UniProt Q6NYC1)	0.164
KEAP1_Q14145_273_CHSLTPNFLQMQLQK (UniProt Q14145)	-0.0118
KARS_Q15046_496_EICNAYTELNDPMR (UniProt Q15046)	0.000401
KIAA0930_Q6ICG6_119_LDYMVTCAVCTR (UniProt Q6ICG6)	0.134

Exported as a markdown table: entries from further up.

| Target | probe-labelled cysteine peptide fold change |
| --- | --- |
| KDM3B_Q7LBC6_1212_AIRPPCPDTAPPSSALHWLADLATQK (UniProt Q7LBC6) | -0.176 |
| JMJD1C_Q15652_1871_CGFVVCLDCYK (UniProt Q15652) | 0.149 |
| KIF20B_Q96Q89_80_ELESEGCVHILDSQTVVLK (UniProt Q96Q89) | -0.0444 |
